Assay [1] has as its target SMURF1 (endogenous, HEK293T) (human (endogenous in HEK293T)) (UniProt Q9HCE7). Description: co-IP; endogenous proteins in osteoblast (OB) and HEK293T cells; immunoblot. (Immunoblotting shows a protein as a band on a membrane.)
Assay [2] addresses SMURF1 (endogenous, mouse osteoblasts) (mouse (endogenous in osteoblasts)) (UniProt Q9CUN6). The assay is described as above.
The target in another assay is GST-OTUB1 (UniProt Q7TQI3). Nature of the assay: pull-down; GST-OTUB1 on glutathione Sepharose 4B beads incubated in bone lysates at 4 °C overnight; washed four times with GST binding buffer (100 mM NaCl, 10 mM Tris, 50 mM NaF, 2 mM EDTA, 0.5 mM Na3VO4, 1% NP-40); western blot; only the target purified.
Assay [3] has as its target Flag-Smurf1 (UniProt Q9CUN6). Description: co-IP; HEK293T cells with or without GFP-Otub1; immunoblot.
A further assay deals with Flag-Otub1-FL (UniProt Q7TQI3). Nature of the assay: co-IP; HEK293T cells transfected with tagged constructs, lysed after 48 h in HEPES lysis buffer (20 mM HEPES pH 7.2, 50 mM NaCl, 0.5% Triton X-100, 1 mM NaF, 1 mM dithiothreitol); primary antibody and protein A/G agarose beads at 4 °C overnight; western blot.
The target in assay [4] is Flag-Smurf1 (UniProt Q9CUN6). The description is as above.

Amino acid sequences for entries named in this document (tags omitted). Residues count along the entry.
UniProt Q9HCE7: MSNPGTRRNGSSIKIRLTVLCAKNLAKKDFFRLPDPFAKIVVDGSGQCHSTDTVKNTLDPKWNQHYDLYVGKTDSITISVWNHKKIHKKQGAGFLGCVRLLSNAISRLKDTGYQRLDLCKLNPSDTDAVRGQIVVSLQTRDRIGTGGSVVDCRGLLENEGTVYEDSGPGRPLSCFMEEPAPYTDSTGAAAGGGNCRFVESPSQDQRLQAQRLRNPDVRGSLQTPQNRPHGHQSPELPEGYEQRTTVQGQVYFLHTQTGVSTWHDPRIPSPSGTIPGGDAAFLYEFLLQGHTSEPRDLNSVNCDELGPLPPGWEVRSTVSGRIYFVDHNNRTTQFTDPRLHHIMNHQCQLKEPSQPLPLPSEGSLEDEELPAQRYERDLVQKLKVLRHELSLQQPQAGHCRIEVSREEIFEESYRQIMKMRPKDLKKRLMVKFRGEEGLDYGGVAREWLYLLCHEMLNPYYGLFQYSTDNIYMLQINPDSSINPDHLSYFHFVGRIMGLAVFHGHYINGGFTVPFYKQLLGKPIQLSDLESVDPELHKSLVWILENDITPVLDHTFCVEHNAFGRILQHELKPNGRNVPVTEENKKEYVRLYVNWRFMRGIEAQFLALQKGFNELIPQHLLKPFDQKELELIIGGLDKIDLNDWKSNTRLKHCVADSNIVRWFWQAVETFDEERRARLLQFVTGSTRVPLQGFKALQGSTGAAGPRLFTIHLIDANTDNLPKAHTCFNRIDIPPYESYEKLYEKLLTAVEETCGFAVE
UniProt Q9CUN6: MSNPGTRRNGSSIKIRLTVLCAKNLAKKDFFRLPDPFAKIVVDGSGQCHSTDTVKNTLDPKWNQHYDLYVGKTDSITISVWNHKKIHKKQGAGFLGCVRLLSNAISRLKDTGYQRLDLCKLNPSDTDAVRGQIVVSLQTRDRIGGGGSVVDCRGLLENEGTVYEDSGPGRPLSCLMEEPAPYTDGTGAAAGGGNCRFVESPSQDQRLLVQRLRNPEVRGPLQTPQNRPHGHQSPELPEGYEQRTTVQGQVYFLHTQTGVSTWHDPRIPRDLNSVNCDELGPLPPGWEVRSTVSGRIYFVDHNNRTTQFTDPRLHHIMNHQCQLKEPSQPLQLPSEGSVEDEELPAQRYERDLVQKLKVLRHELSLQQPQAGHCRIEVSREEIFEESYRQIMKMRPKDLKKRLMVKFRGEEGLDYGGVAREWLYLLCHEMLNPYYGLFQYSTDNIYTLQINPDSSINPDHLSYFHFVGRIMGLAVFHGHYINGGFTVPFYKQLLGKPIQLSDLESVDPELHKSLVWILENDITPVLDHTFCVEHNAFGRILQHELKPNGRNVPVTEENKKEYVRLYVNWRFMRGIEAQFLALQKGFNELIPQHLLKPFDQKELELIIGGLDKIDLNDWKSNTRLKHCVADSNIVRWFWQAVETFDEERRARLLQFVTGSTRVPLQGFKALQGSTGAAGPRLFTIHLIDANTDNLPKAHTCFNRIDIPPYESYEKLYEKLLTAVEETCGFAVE
UniProt Q7TQI3: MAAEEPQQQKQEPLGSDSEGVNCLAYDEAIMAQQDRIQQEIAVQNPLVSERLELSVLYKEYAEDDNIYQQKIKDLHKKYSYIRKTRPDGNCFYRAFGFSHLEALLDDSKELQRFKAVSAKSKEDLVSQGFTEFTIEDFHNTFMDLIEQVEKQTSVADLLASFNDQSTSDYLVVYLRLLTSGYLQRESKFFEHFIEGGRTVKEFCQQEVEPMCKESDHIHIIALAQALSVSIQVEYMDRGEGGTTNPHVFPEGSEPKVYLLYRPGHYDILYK
UniProt P21802, residues 22-821: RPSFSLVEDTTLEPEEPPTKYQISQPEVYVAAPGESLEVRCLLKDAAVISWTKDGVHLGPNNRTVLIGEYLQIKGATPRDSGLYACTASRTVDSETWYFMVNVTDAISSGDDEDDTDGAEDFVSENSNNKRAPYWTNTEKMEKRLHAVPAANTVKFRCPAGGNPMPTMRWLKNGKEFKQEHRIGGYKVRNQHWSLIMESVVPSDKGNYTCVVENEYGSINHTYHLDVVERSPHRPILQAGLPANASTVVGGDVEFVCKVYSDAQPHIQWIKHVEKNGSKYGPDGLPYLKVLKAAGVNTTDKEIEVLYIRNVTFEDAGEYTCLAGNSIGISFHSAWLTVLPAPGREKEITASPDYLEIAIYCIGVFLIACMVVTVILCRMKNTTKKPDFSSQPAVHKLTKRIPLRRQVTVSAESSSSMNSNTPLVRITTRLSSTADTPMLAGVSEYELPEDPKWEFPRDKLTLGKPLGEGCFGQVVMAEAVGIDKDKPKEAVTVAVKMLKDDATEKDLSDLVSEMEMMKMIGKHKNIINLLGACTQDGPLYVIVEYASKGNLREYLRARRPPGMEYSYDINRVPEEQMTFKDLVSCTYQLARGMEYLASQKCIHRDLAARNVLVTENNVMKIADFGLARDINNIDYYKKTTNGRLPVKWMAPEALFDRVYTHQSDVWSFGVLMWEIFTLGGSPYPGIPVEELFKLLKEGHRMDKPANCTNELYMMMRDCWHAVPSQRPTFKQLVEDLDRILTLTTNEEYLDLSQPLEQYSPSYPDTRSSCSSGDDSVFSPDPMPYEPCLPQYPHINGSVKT
UniProt P21803, residues 22-821: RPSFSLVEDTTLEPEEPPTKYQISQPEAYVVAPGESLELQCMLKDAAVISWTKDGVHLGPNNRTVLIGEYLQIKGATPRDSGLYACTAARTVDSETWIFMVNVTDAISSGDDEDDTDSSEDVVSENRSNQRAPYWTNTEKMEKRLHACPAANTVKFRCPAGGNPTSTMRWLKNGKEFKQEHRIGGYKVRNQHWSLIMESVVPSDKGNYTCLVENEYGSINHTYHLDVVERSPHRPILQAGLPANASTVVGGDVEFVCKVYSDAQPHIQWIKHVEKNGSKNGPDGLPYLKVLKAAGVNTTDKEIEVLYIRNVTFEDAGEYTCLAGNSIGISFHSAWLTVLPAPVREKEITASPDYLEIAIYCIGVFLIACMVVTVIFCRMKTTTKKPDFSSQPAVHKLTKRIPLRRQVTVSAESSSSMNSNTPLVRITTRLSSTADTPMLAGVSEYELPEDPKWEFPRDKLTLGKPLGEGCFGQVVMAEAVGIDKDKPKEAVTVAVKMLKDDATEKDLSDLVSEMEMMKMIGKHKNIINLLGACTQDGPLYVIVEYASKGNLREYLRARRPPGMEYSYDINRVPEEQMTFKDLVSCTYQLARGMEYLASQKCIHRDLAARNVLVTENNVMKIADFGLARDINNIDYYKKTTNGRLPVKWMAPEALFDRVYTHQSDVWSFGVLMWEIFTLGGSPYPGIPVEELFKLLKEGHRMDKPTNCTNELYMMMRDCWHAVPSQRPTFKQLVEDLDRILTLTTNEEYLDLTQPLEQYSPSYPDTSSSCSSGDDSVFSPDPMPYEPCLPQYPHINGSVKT

No constants are given. Whether binding was seen depends on the method and setting. Binding seen in cells or lysates may run through a third protein. Some binding calls cover weakened binding; strength is not graded here.

As for “FGFR2 (endogenous, HEK293T) (from UniProt P21802 22-821) (receptor)”, the binding result in assay [1] is recorded as “binds”.

Regarding “FGFR2 (endogenous, mouse) (from UniProt P21803 22-821) (receptor)”, the binding result (in assay [2]; in the assay with GST-OTUB1) was “binds” in each case.

Turning to “Myc-Fgfr2 (from UniProt P21803 22-821) (receptor)”, the binding result with Flag-Smurf1 [3], in the assay with Flag-Otub1-FL and with Flag-Smurf1 [4] was “binds” throughout.

For the origin of these results see article PMC10079838.
